Here are results for 39 compounds from PubChem BioAssay AID2685 (National Center for Advancing Translational Sciences (NCATS), 2010).

Several values for one entry are separate records, joined by “and”; a condition that tells them apart may be missing. Identical values can stand only once. The list shows a part of the results. Further columns of the screen follow, without active or inactive calls. Most of these compounds were active or inconclusive in the main read-out, so they are no random draw. Potencies come from curve fits of mixed quality, noted in brackets.

The assay is described as follows: qHTS Assay for Lipid Storage Modulators in Drosophila S3 Cells.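 On cell number change: cells counted by Cell Tracker Red CMTPX staining in the red channel.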 Conditions: BODIPY lipid droplet fluorescence, 18-24 h; for cell number change: measured here: cell count max response, cells fed with added oleic acid. A digest of the protocol:
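Laser-scanning cytometry quantifies lipid droplet accumulation (500–530 nm total intensity; droplet/cell object ratio) in oleic acid-fed (400 uM added) Drosophila S3 cells treated with a concentration series. 20 uM Triacsin C defined 100% inhibition.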

Where [1] appears, read: measured here: cell number channel AC50, cells fed with added oleic acid.
[2] abbreviates: measured here: lipid fluorescence (Fed channel) AC50, cells fed with added oleic acid.

Take `COc1ccc(C(=O)COC(=O)CNC(=O)c2cccs2)cc1Br`: the cell number change was 13%. Consider `O=C(CSc1nnnn1-c1ccccc1)Nc1ccc(N2CCOCC2)c(Cl)c1`, for which the cell number change is 117%. The half-maximal activity concentration (AC50) under setting [1] is 25900 nM [rising, partial curve].

On to `N#CC1=C(N)Oc2ccc3ccc(O)cc3c2C1c1ccsc1` (stereo unspecified), for which the cell number change stood at 6.33%. In addition, the half-maximal activity concentration (AC50) under setting [2] is 116 nM [rising, full curve, poor fit]. With `COc1cc(/C=N/NC(=O)C(=O)NCC2CCCO2)cc(Cl)c1O` (stereo unspecified), under setting [1], the AC50 is 920 nM [falling, partial curve]. Turning to `CCOc1ccc(/C=N/n2c(-c3ccccc3)n[nH]c2=S)cc1`, the cell number change was found to be 16.2%. Under setting [2], the AC50 is 116 nM [rising, full curve, poor fit]. On to `COc1cc2cc(CCOC(=O)c3ccc(C(F)(F)F)cc3)oc(=O)c2cc1OC`, for which the cell number change amounted to 5.37%. The AC50 under setting [2] was 116 nM [falling, single point]. Consider `COc1cc2c(cc1OC)C(c1cc3cc(OC)c(OC)cc3[nH]c1=O)N(C(=O)C1CC1)CC2` (stereo unspecified), for which the cell number change came out at 11.9%. Besides, the AC50 under setting [2] was 29100 nM [falling, single point].

Take `CCc1cc2c(nc1CC)CCN(CC/C(C)=N/O[C@@H](C)c1cc(-c3c(C)cc(C)cc3C)no1)C2`: the cell number change was -47.5%. For the same compound, under setting [1], the AC50 is 23100 nM [falling, single point]. Under setting [2], the AC50 is 14600 nM [falling, single point]. Regarding `O=C1C(Cl)=C(N2CCCCCC2)C(=O)N1c1ccccc1Cl`, the cell number change is -22.2%. Regarding `CC(=O)Nc1nc(C)c(-c2csc(Nc3ccccn3)n2)s1`, the cell number change is -12.9% and -20%. Besides, under setting [1], the AC50 is 1460 nM [falling, partial curve, poor fit]. Further, under setting [2], the AC50 is 11600 nM [falling, single point].

With `CCCCn1c(N)c(N(CCOC)C(=O)Cn2c(=O)oc3ccccc32)c(=O)[nH]c1=O`, the cell number change is -22.9%.

On to `O=S(=O)(c1ccc2c(c1)OCCO2)N1CCN(Cc2ccccc2)CC1`, for which the cell number change was found to be 23.7%. Besides, the AC50 under setting [2] was 651 nM [falling, single point]. Regarding `Cc1cc(C(=O)COC(=O)c2cccc(O)c2)c(C)n1C1CC1`, the cell number change was -17.4%.

Turning to `O=C1c2ccccc2C(=O)N1CCCc1nc2ccccc2c(=O)n1-c1cccnc1`, the cell number change was -21.6%. As to `Nn1c(Cc2cccc3ccccc23)nnc1SCc1ccccc1Cl`, the AC50 under setting [1] is 11.6 nM [rising, full curve, poor fit]. As for `CCOC(=O)N1CCN(C(=O)C(=O)Nc2sc3c(c2C(N)=O)CC(C)(C)OC3)CC1`, the cell number change amounted to 3.3%. For the same compound, under setting [2], the AC50 is 29100 nM [rising, single point]. In the case of `O=C(/C=C/c1cccc([N+](=O)[O-])c1)NCc1ccc2c(c1)OCO2`, the cell number change came to 22.5%. Moreover, under setting [2], the AC50 was 1640 nM [rising, partial curve]. Consider `COc1ccc(OCCCC(=O)OCC(=O)NNC(=O)c2ccc([N+](=O)[O-])cc2)cc1`, for which the AC50 under setting [2] was 4610 nM [falling, single point]. With `COc1cc2cc(C)nc(Cc3cccc4ccccc34)c2cc1OC`, the half-maximal activity concentration (AC50) was 231 nM [rising, partial curve] under setting [1] and 116 nM [rising, full curve, poor fit] under setting [2].

As to `COc1ccccc1CCNC(=O)c1nc(-c2cccs2)no1`, the half-maximal activity concentration (AC50) under setting [1] is 4.61 nM [falling, full curve, poor fit]. Turning to `COc1ccc(S(=O)(=O)N2CCCCC2)cc1NC(=O)CN(C)C1CCCCC1`, the cell number change was -29%. In addition, the AC50 under setting [1] was 164 nM [falling, full curve, poor fit]. For the compound `CCCCNC(=O)C1CCC(CNS(=O)(=O)c2c(C)cc(C)cc2C)CC1` (stereo unspecified), the cell number change is 95.7%. Moreover, under setting [1], the AC50 is 29100 nM [rising, single point]. As to `COc1ccc(C(=O)Nc2cccc(NC(=O)c3cccs3)c2)cc1OC`, the cell number change was -1.92%. Also, the concentration at half-maximal activity (AC50) under setting [1] is 36.6 nM [rising, single point]. Under setting [2], the AC50 is 29100 nM [falling, single point]. Consider `COc1ccc(/C=C/C(=O)c2ccc([N+](=O)[O-])o2)cc1OC`, for which the cell number change was -60.2%. Besides, under setting [1], the concentration at half-maximal activity (AC50) is 20600 nM [falling, partial curve]. The AC50 under setting [2] is 6510 nM [falling, partial curve].

Regarding `Cc1ccnc(NC(=O)CCNS(=O)(=O)c2ccc(C)c(C)c2)c1`, the cell number change was determined as 35.2%. The AC50 under setting [1] was 4610 nM [rising, full curve, poor fit]. For `CN(CC(=O)N1CCOCC1)S(=O)(=O)c1cc(Cl)ccc1Cl`, the cell number change was 3.81%. Moreover, the concentration at half-maximal activity (AC50) under setting [2] was 6510 nM [rising, single point].

Turning to `CN1CCN(c2ccc(Cl)cc2NC(=O)CC2OC(=O)c3ccccc32)CC1` (stereo unspecified), the cell number change is -4.41%. For `CC(C)C(=O)Nc1ccc(Nc2ccccc2)cc1`, the cell number change is -18.5%. Also, the concentration at half-maximal activity (AC50) under setting [1] was 651 nM [falling, full curve]. Besides, the concentration at half-maximal activity (AC50) under setting [2] is 731 nM [falling, full curve]. Regarding `Cc1onc(-c2ccccc2)c1C(=O)N/N=C/c1cn(C)c2ccccc12`, the cell number change is -15%. In addition, the AC50 under setting [1] was 116 nM [falling, partial curve, poor fit]. On to `O=c1c2c(-c3ccccc3)csc2ncn1/N=C/c1ccc(O)c([N+](=O)[O-])c1`, for which the cell number change was -1.52%. For the same compound, the AC50 under setting [2] is 130 nM [falling, partial curve, poor fit]. For `CCC(C)NC(=O)COC(=O)c1cccnc1Nc1ccccc1F` (stereo unspecified), the cell number change was -39%. For the same compound, under setting [1], the AC50 was 231 nM [falling, full curve, poor fit]. The AC50 under setting [2] is 1160 nM [rising, full curve]. Take `O=C(NCc1ccncc1)C(=O)NCC1OCCCN1S(=O)(=O)c1cc(F)ccc1F` (stereo unspecified): the cell number change worked out at 16.1%. Turning to `Cc1ccc(NC(=O)COC(=O)C2COc3ccccc3O2)cc1` (stereo unspecified), the cell number change was determined as 13.4%. For the same compound, the AC50 under setting [2] was 6510 nM [rising, single point]. Regarding `COc1ccc(OC)c(C(=O)/C=C/c2cccnc2)c1`, the cell number change is -3.75%. Further, the AC50 under setting [2] was 2310 nM [falling, partial curve, poor fit]. Take `COc1ccc(C(=O)NCC(=O)OCC(=O)NC(=O)NC2CCCCC2)cc1OC`: the cell number change turned out to be 7.64%. Besides, the AC50 under setting [2] is 7310 nM [falling, partial curve]. As for `CCOC(=O)c1oc2ccccc2c1NC(=O)c1ccc(S(=O)(=O)N(C)C)cc1`, the cell number change was 9.2%.

For the compound `COc1cc(NC(=O)C2C3CCC(O3)C2C(=O)O)cc(OC)c1` (stereo unspecified), the cell number change came out at 7.02%. In addition, the AC50 under setting [2] is 6510 nM [rising, single point]. For `CCN(CC)c1ccc(S(=O)(=O)N2CCCCC2)cc1NC(=O)C1CCC1`, the cell number change is -4.36%.

With `O=C(Nc1ccc2nn(-c3ccccc3)nc2c1)c1ccc2c(c1)OCO2`, the AC50 runs as follows: under setting [1], 517 nM [rising, partial curve, poor fit]; under setting [2], 103 nM [rising, full curve, poor fit].
